Data reported in patent publication US20070117743A1, “New antitumoral compounds” (priority 2003, published 2007).
Like-named read-outs stand apart in the source and are kept apart here. At least one structure is not confirmed: it was looked up by name or label, or the drawing left a doubt. *1 amine or outer side, *2 acyl side, *3 side chain or, on linkers, in order; H or OH if unused. Where a SMILES comes first, the peptide text is derived from it. Bridges are numbered along the chain shown (N, C = ends). [ ]: non-standard residue; d: D form. The star is where a group is joined. X3 = CN(C)C(=NCCC[C@H](N[*:1])C(=O)[*:2])N(C)c1ccccc1; d(aIle) = CC[C@H](C)[C@@H](N)C(=O)O; d(aThr) = C[C@@H](O)[C@@H](N)C(=O)O; Hexanoyl(5-Me) = CC(C)CCCC(=O)*; Dhb = C/C=C(\N)C(=O)O

Key:
Format in all cases: cell-based, human
A-549 = assay: SRB colorimetric assay of cell growth and viability, A-549; details: 48 hours exposure
Text: (§1) The finality of this assay is to interrupt the growth of a “in vitro” tumor cell culture by means a continued exhibition of the cells to the sample to be testing.
(§2) This form of the assay employs 96 well cell culture microplates of 9 mm diameter (Faircloth, 1988; Mosmann, 1983). Most of the cell lines are obtained from American Type Culture Collection (ATCC) derived from different human cancer types.
(§3) Cells are maintained in RPMI 1640 10% FBS, supplemented with 0.1 g/l penicillin and 0.1 g/l streptomycin sulfate and then incubated at 37° C., 5% CO2 and 98% humidity. For the experiments, cells were harvested from subconfluent cultures using trypsin and resuspended in fresh medium before plating.
(§4) Cells are seeded in 96 well microtiter plates, at 5×10^3 cells per well in aliquots of 195 μL medium, and they are allowed to attach to the plate surface by growing in drug free medium for 18 hours. Afterward, samples are added in aliquots of 5 μL in a ranging from 10 to 10^−8 μg/mL, dissolved in DMSO:EtOH:PBS (0.5:0.5:99). After 48 hours exposure, the antitumor effect are measured by the SRB methodology: cells are fixed by adding 50 μL of cold 50% (wt/vol) trichloroacetic acid (TCA) and incubating for 60 minutes at 4° C. Plates are washed with deionized water and dried. One hundred μL of SRB solution (0.4% wt/vol in 1% acetic acid) is added to each microtiter well and incubated for 10 minutes at room temperature. Unbound SRB is removed by washing with 1% acetic acid. Plates are air dried and bound stain is solubilized with Tris buffer. Optical densities are read on a automated spectrophotometric plate reader at a single wavelength of 490 nm.
(§5) The values for mean+/− SD of data from triplicate wells are calculated. Some parameters for cellular responses can be calculated: GI=growth inhibition, TGI=total growth inhibition (cytostatic effect) and LC=cell killing (cytotoxic effect).

SK-MEL-28 = assay: SRB colorimetric assay of cell growth and viability, SK-MEL-28; details: 48 hours exposure, read-out: LC50 MEL-28
Text: as §1, §2, §3
as §4, with “Plates are washed with deionized water and dried. One hundred μL of SRB solution (0.4% wt/vol in 1% acetic acid) is added to each microtiter well and incubated for 10 minutes at room temperature. Unbound SRB is removed by washing with 1% acetic acid. Plates are air dried and bound stain is solubilized with Tris buffer.” left out
(§6) The values for mean+/− SD of data from triplicate wells are calculated. […]

HT-29 = assay: SRB colorimetric assay of cell growth and viability, HT-29; details: 48 hours exposure
Text: as §1, §2, §3, §4, §5

LoVo = assay: SRB colorimetric assay of cell growth and viability, LoVo; details: 48 hours exposure, read-out: LC50 LOVO
Text: as §1, §2, §3
as §4, with “Plates are washed with deionized water and dried. One hundred μL of SRB solution (0.4% wt/vol in 1% acetic acid) is added to each microtiter well and incubated for 10 minutes at room temperature. Unbound SRB is removed by washing with 1% acetic acid. Plates are air dried and bound stain is solubilized with Tris buffer.” left out
as §6

LoVo-Dox = assay: SRB colorimetric assay of cell growth and viability, LoVo-Dox; details: 48 hours exposure, read-out: LC50 LOVO-DOX
Text: as §1
(§7) A colorimetric type of assay, using sulforhodamine B (SRB) reaction has been adapted for a quantitative measurement of cell growth and viability [following the technique described by Philip Skehan, et al. (1990), New colorimetric cytotoxicity assay for anticancer drug screening, J. Natl. Cancer Inst., 82:1107-1112].
(§8) This form of the assay employs 96 well cell culture microplates of 9 mm diameter (Faircloth, 1988; Mosmann, 1983). […]
(§9) Cells are seeded in 96 well microtiter plates, at 5×10^3 cells per well in aliquots of 195 μL medium, and they are allowed to attach to the plate surface by growing in drug free medium for 18 hours. […] After 48 hours exposure, the antitumor effect are measured by the SRB methodology: cells are fixed by adding 50 μL of cold 50% (wt/vol) trichloroacetic acid (TCA) and incubating for 60 minutes at 4° C. […] Optical densities are read on a automated spectrophotometric plate reader at a single wavelength of 490 nm.
as §5

DU-145 = assay: SRB colorimetric assay of cell growth and viability, DU-145; details: 48 hours exposure
Text: as §1, §2, §3
(§10) Cells are seeded in 96 well microtiter plates, at 5×10^3 cells per well in aliquots of 195 μL medium, and they are allowed to attach to the plate surface by growing in drug free medium for 18 hours. Afterward, samples are added in aliquots of 5 μL in a ranging from 10 to 10^−8 μg/mL, dissolved in DMSO:EtOH:PBS (0.5:0.5:99). After 48 hours exposure, the antitumor effect are measured by the SRB methodology: cells are fixed by adding 50 μL of cold 50% (wt/vol) trichloroacetic acid (TCA) and incubating for 60 minutes at 4° C. […] Optical densities are read on a automated spectrophotometric plate reader at a single wavelength of 490 nm.
as §6

LNCaP = assay: SRB colorimetric assay of cell growth and viability, LNCaP; details: 48 hours exposure, read-out: LC50 LN-caP
Text: as §1, §2, §3, §10, §6

SK-BR-3 = assay: SRB colorimetric assay of cell growth and viability, SK-BR-3; details: 48 hours exposure
Text: as §1, §2, §3, §10, §6

IGROV-1 = assay: SRB colorimetric assay of cell growth and viability, IGROV-1; details: 48 hours exposure
Text: as §1, §2, §3, §10, §6

IGROV-ET = assay: SRB colorimetric assay of cell growth and viability, IGROV-ET; details: 48 hours exposure, read-out: LC50 IGROV-ET
Text: as §1, §2, §3, §10, §6

HeLa = assay: SRB colorimetric assay of cell growth and viability, HeLa; details: 48 hours exposure, read-out: LC50 HELA
Text: as §1, §2, §3, §10, §6

HeLa-APL = assay: SRB colorimetric assay of cell growth and viability, HeLa-APL; details: 48 hours exposure, read-out: LC50 HELA-APL
Text: as §1, §2, §3, §10, §6

K-562 = assay: SRB colorimetric assay of cell growth and viability, K-562; details: 48 hours exposure, read-out: LC50 K-562
Text: as §1, §2, §3, §10, §6

PANC-1 = assay: SRB colorimetric assay of cell growth and viability, PANC-1; details: 48 hours exposure, read-out: LC50 PANC-1
Text: as §1, §2, §3, §10, §6

MB-231 = assay: SRB colorimetric assay of cell growth and viability, MB-231; details: read-out: LC50 (lethal concentration at 50%), MB-231 cells, 48 hours exposure
Text: as §1, §7, §8, §9, §5

Structure (SMILES)	CC50 (A-549; A-549, read-out: LC50 A-549) [µM]	CC50 (SK-MEL-28) [µM]	CC50 (HT-29; HT-29, read-out: LC50 HT-29) [µM]	CC50 (LoVo) [µM]	CC50 (LoVo-Dox) [µM]	LC50 (concentration causing 50% net cell kill) (DU-145) [µM]	CC50 (LNCaP) [µM]	LC50 (SK-BR-3) [µM]	LC50 (concentration causing 50% net cell killing) (IGROV-1) [µM]	CC50 (IGROV-ET) [µM]	CC50 (HeLa) [µM]	CC50 (HeLa-APL) [µM]	CC50 (K-562) [µM]	CC50 (PANC-1) [µM]	CC50 (A-549; SRB, read-out: LC50 A-549) [µM]	CC50 (HT-29; SRB, read-out: LC50 HT-29) [µM]	CC50 (A-549; read-out: LC50 (lethal concentration at 50%), A-549 cells, SRB) [µM]	CC50 (HT-29; read-out: LC50 (lethal concentration at 50%), HT-29 cells, SRB) [µM]	CC50 (MB-231) [µM]
C/C=C1\NC(=O)[C@H](Cc2ccccc2)NC(=O)[C@@H](C(C)C)NC(=O)[C@@H]([C@@H](C)CC)NC(=O)[C@H](NC(=O)[C@H](NC(=O)[C@H](CCCN)NC(=O)[C@H]2CCCN2C(=O)[C@H](NC(=O)[C@@H](NC(=O)[C@@H](NC(=O)[C@@H](C(C)C)N(CCCCCCC)CCCCCCC)[C@@H](C)O)C(C)C)C(C)C)[C@@H](C)CC)[C@@H](C)OC(=O)[C@H](C(C)C)NC1=O [Compound 98, [no5-MeHex^14-N-(Hep)2-D-Val^13]-Kahalalide F]	≥ 6.4	≥ 6.4	≥ 6.4	≥ 6.4	≥ 6.4	≥ 6.4	≥ 6.4	≥ 6.4	≥ 6.4	≥ 6.4	4.35	6.4	≥ 6.4	≥ 6.4					
C/C=C1\NC(=O)[C@H](Cc2ccccc2)NC(=O)[C@@H](C(C)C)NC(=O)[C@@H]([C@@H](C)CC)NC(=O)[C@H](NC(=O)[C@H](NC(=O)[C@H](CCCN=C(N(C)C)N(C)c2ccccc2)NC(=O)[C@H]2CCCN2C(=O)[C@H](NC(=O)[C@@H](NC(=O)[C@@H](NC(=O)[C@H](NC(=O)CCCC(C)C)C(C)C)[C@@H](C)O)C(C)C)C(C)C)[C@@H](C)CC)[C@@H](C)OC(=O)[C@H](C(C)C)NC1=O [Compound 90, [N(Me,Ph),N′(ME)2-Arg^8]-Kahalalide F] ({Hexanoyl(5-Me)}-[dV]TV[dV][dP][X3][d(aIle)][d(aThr)][d(aIle)][dV]F[Dhb]V; ester 8-C)															0.611	0.549			
C/C=C1\NC(=O)[C@H](Cc2ccccc2)NC(=O)[C@@H](C(C)C)NC(=O)[C@@H]([C@@H](C)CC)NC(=O)[C@H](NC(=O)[C@H](NC(=O)[C@H](CCCN)NC(=O)[C@H]2CCCN2C(=O)[C@H](NC(=O)[C@@H](NC(=O)[C@@H](NC(=O)[C@H](N=C(N(C)C)N(C)C)C(C)C)[C@@H](C)O)C(C)C)C(C)C)[C@@H](C)CC)[C@@H](C)OC(=O)[C@H](C(C)C)NC1=O [Compound 103, [[C(═N(CH3)2)^14]-KF]																	6.83	6.83	≥ 6.83
C/C=C1\NC(=O)[C@H](Cc2ccccc2)NC(=O)[C@@H](C(C)C)NC(=O)[C@@H]([C@@H](C)CC)NC(=O)[C@H](NC(=O)[C@H](NC(=O)[C@H](CCCN)NC(=O)[C@@H]2CC[C@H](c3ccccc3)N2C(=O)[C@H](NC(=O)[C@@H](NC(=O)[C@@H](NC(=O)[C@H](NC(=O)CC[C@@H](C)CC)C(C)C)[C@@H](C)O)C(C)C)C(C)C)[C@@H](C)CC)[C@@H](C)OC(=O)[C@H](C(C)C)NC1=O [Compound 62, [(5R)-Ph-Pro^9, (4S)-MeHex^14]-KF]	≥ 6.43	≥ 6.43	≥ 6.43	6.43	≥ 6.43	≥ 6.43	≥ 6.43		≥ 6.43	≥ 6.43	6.43	6.43	≥ 6.43	≥ 6.43					
